Measured data: PubChem BioAssay AID1259405 (NCATS, 2018)
Shown is an unselected part of about 50,000 deposited reagents. About 4,000 of them (8%) were called active. 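Mouse siRNA library applied to hamster cells; one well for each siRNA.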 A number with no mark means an inactive call. The numbers tell different reagents against one gene apart.

Purpose: 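Silenced genes that increase secreted GFP made by CHO cells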 (primary screen)
System: Chinese hamster CHO-K1 ovary cells with stable secreted eGFP expression
Reagent: single siRNA against mouse genes, 0.8 pmol siRNA per well (2 µl of 400 nM stock)
Duration: 3 days
Read-out: 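Per-well intracellular GFP measured by laser scanning cytometry, plus viability from ATP luminescence, each relative to plate median of non-targeting control wells, in %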
Scale: GFP, % of control: higher = more GFP per well, higher productivity; viability (ATP), % of control: higher = more viable cells (more ATP)
Call rule: 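a knock-down is called active if GFP reaches 120% or more of non-targeting control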

no.	target gene	reagent	GFP, % of control	viability (ATP), % of control
1	Ift27	1	78.2	68.5
2	Ift27	2	121 (active)	114
3	Ift27	3	80.1	68.5
4	Gpr142	1	74.5	45.6
5	Gpr142	2	110	76.4
6	Gpr142	3	86.8	89.9
7	Tgfbi	1	39.2	53.9
8	Tgfbi	2	99.1	90.1
9	Cenpi	1	80.6	103
10	Cenpi	2	60.4	73.2
11	Cenpi	3	63.1	76.3
12	Neu2	1	88.7	94.4
13	Neu2	2	94.7	52.3
14	Neu2	3	54.4	53.3
15	Irf6	1	55.8	75.7
16	Irf6	2	77.5	58.1
17	Irf6	3	71.9	85.1
18	Mrps11	1	60.3	32.6
19	Mrps11	2	57.9	47.1
20	Mrps11	3	39.7	47.5
21	Or6c210	1	103	75
22	Or6c210	2	68.7	77.3
23	Or6c210	3	92.9	82.4
24	Nudt19	1	74.3	83.2
25	Nudt19	2	68	61.5
26	Nudt19	3	74.8	86.2
27	Or9m1b	1	43	52.1
28	Or9m1b	2	58.6	60
29	Or9m1b	3	66.8	46.9
30	Fam169b	1	54.4	82.8
31	Fam169b	2	98.4	59.8
32	Fam169b	3	45.8	44.6
33	Calhm2	1	85.8	92.2
34	Calhm2	2	67.2	71.9
35	Calhm2	3	87.4	66.5
36	Mefv	1	87.8	111
37	Mefv	2	115	90.3
38	Rpl14	1	114	115
39	Rpl14	2	73.9	41.9
40	Rpl14	3	93.5	78.2
41	Cxcl13	1	37.5	32.9
42	Cxcl13	2	79.3	73.5
43	Cxcl13	3	29.6	53.7
44	Gsdma2	1	71.9	44.6
45	Gsdma2	2	65.4	129
46	Gsdma2	3	93.4	114
47	Kctd10	1	116	128
48	Kctd10	2	54.5	61.8
49	Siah2	1	76	81
50	Siah2	2	84.3	69.5
51	Siah2	3	52.7	83.8
52	Timcc	1	92.6	87.8
53	Timcc	2	82.9	87.4
54	Timcc	3	90.6	90.3
55	Yars2	1	90.1	95.3
56	Yars2	2	129 (active)	70.1
57	Yars2	3	43.8	68
58	Taf11	1	96.8	110
59	Taf11	2	85.6	70.8
60	Taf11	3	58	86.4
61	Sec23a	1	167 (active)	68.2
62	Sec23a	2	92	83
63	Sec23a	3	35.8	45.1
64	Cimap1a	1	116	83.6
65	Cimap1a	2	93	110
66	Cimap1a	3	94.7	71.3
67	Brd4	1	66.1	49.1
68	Brd4	2	55.8	16.1
69	Brd4	3	52	46
70	Frk	1	79.6	53.5
71	Gab2	1	73.3	56.9
72	Gab2	2	75.4	98.8
73	Gab2	3	63	87
74	Sec61a2	1	54.7	51.6
75	Sec61a2	2	124 (active)	80.8
76	Sec61a2	3	85.5	88.4
77	Chp1	1	85.6	80.6
78	Chp1	2	76.9	78.9
79	Chp1	3	86.2	80.6
80	Zfpm1	1	25	23.6
81	Zfpm1	2	70.9	85.1
82	Zfpm1	3	78.7	90.5
83	Mrgprd	1	68.1	67.7
84	Mrgprd	2	89	85.3
85	Mrgprd	3	146 (active)	79

Entries listed so far whose gene name begins with O or o (6):
target gene	reagent	GFP, % of control	viability (ATP), % of control
Or6c210	1	103	75
Or6c210	2	68.7	77.3
Or6c210	3	92.9	82.4
Or9m1b	1	43	52.1
Or9m1b	2	58.6	60
Or9m1b	3	66.8	46.9
